Experimental data as given in patent US20110092572A1.
These are yes or no findings as the source states them, for the method shown. Some results given as binding are weak or reduced against the parent protein; the word gives no strength.

Amino acid sequences for entries named in this document (tags omitted). Residues count along the entry.
UniProt P01241, residues 27-217: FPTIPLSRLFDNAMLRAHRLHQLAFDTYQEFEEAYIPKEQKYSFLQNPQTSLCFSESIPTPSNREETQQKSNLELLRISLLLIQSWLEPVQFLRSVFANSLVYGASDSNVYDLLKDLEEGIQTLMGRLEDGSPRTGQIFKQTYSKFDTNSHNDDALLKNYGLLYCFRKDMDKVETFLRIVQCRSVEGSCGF

Biological target: T1, growth hormone receptor (mouse liver microsomal membrane preparation) (mouse) (UniProt P16882)
T1 sequence (looked up): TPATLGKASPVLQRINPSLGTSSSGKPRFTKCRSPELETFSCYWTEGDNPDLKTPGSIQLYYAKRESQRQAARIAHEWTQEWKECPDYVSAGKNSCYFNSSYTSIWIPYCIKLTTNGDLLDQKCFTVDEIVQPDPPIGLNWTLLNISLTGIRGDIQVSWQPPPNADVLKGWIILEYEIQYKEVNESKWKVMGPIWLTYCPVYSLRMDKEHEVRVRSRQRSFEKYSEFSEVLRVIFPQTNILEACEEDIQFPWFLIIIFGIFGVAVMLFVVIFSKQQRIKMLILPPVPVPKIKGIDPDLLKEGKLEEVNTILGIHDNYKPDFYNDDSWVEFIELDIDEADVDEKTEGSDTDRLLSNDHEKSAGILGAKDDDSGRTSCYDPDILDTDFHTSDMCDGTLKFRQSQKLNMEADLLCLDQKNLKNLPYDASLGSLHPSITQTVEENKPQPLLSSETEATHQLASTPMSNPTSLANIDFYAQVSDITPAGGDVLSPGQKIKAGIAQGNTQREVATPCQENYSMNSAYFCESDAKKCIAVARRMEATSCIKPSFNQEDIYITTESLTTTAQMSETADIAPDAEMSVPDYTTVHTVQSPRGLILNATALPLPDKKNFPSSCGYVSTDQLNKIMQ
Test: [125I]-hGH specific binding to mouse liver microsomal membranes

binding: binds
Substance: iodinated human growth hormone [125I] hGH (from UniProt P01241 27-217) (ligand)
